Test [1] has as its target T1, Pex15pTPA (S. cerevisiae) (UniProt Q08215).
T1 sequence: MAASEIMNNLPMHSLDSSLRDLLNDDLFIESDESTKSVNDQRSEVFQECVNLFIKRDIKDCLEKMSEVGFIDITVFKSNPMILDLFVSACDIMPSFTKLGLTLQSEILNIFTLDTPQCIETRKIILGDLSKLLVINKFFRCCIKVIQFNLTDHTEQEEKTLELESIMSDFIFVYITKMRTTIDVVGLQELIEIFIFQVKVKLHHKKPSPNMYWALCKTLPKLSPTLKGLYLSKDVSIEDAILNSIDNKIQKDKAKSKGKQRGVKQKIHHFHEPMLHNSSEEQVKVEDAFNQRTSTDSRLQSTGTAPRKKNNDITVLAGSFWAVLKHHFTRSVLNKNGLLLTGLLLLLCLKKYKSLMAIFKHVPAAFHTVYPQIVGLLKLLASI
Put plainly: co-IP; Pex15pTPA isolated from 1% digitonin-solubilised total membranes on IgG-Sepharose, TEV protease eluate, immunoblot; 5 mM ATP.

The target in test [2] is T2, Pex15p (endogenous, yeast membranes) (S. cerevisiae (endogenous in yeast cells)) (UniProt Q08215).
T2 sequence: T1 sequence
Put plainly: co-IP; Pex1pTPA (Δpex6 cells with plasmid Pex6p or Pex6pWB) or Pex6pTPA (Δpex1 cells with plasmid Pex1p or Pex1pWB) isolated from 1% digitonin-solubilised total membranes on IgG-Sepharose, TEV protease eluate, immunoblot; 5 mM ATP. A general note: In western blotting, separated proteins are transferred to a membrane and probed.

In a further test the target is T3, Pex1pTPA (S. cerevisiae) (UniProt P24004).
T3 sequence: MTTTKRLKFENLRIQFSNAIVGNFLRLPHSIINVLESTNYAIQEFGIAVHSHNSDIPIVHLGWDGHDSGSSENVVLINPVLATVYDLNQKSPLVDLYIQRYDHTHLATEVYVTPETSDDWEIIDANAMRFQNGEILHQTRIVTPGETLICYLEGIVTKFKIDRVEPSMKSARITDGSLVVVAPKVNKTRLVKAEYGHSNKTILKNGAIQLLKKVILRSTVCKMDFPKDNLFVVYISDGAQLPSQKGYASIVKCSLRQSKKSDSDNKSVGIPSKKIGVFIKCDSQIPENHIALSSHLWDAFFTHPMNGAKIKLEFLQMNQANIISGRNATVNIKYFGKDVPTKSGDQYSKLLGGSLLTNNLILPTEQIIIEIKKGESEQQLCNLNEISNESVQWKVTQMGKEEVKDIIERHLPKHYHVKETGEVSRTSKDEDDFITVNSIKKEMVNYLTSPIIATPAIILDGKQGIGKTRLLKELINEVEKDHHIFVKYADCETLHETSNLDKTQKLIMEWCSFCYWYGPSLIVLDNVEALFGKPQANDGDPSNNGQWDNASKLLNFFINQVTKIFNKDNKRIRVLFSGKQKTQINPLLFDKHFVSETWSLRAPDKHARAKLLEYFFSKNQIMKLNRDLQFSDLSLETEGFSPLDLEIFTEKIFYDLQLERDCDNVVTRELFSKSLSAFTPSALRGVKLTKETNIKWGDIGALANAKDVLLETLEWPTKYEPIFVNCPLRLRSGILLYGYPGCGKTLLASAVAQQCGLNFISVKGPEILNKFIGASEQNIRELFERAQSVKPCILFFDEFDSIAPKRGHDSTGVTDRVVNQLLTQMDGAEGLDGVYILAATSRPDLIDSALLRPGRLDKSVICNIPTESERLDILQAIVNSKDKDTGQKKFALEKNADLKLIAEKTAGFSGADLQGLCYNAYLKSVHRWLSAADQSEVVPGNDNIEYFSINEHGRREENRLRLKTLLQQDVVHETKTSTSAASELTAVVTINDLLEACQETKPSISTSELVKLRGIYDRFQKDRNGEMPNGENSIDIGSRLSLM
The description is as above.

Another test deals with T4, Pex6pTPA (S. cerevisiae) (UniProt P33760).
T4 sequence: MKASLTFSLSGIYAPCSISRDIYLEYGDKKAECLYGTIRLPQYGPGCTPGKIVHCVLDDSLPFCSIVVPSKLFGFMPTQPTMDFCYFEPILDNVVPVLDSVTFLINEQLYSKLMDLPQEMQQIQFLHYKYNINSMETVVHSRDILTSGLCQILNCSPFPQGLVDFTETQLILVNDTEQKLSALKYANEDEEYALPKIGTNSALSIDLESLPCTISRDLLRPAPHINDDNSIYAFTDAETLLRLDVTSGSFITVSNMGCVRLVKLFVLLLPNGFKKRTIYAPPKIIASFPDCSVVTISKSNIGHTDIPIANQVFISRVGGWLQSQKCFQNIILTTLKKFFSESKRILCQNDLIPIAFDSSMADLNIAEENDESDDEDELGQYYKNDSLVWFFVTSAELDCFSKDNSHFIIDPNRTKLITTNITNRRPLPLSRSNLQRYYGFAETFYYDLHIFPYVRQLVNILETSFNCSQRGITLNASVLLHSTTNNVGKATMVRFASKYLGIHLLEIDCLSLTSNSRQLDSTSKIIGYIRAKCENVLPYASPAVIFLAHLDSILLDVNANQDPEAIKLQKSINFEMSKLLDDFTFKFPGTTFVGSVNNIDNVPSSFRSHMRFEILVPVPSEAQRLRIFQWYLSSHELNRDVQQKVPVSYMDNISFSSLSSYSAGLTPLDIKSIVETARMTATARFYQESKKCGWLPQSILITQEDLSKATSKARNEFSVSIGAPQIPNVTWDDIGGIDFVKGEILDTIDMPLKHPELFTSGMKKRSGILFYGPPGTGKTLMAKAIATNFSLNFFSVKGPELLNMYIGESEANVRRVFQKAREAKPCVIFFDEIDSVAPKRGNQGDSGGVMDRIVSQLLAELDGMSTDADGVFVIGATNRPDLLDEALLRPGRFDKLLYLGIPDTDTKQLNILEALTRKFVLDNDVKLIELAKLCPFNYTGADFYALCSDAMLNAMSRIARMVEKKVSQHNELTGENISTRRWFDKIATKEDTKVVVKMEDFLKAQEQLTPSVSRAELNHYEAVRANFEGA
Described as above.

Numbering of substitutions follows the chain as printed. Numbers in names are those of the source. These are yes or no findings as the source states them, for the method shown. Binding seen in cells or lysates may run through a third protein. Some results given as binding are weak or reduced against the parent protein; the word gives no strength.

B1: Pex6p (endogenous, yeast membranes) (protein, UniProt P33760 1-1030)
chain: T4 sequence
As for B1, in test [1], the binding entry was “binds”.

B2: Pex6p expressed from pRS416-Pex6p in Δpex6Pex1pTPA yeast (protein, UniProt P33760 1-1030)
chain: T4 sequence
With B2, the binding entry (in test [2]; with Pex1pTPA (S. cerevisiae)) was “binds” each time.

B3: HisPex6p(E832Q) (natural protein, S. cerevisiae, UniProt P33760 1-1030, looked up)
chain: T4 sequence with E832Q
notes: Pex6p of yeast with the Walker B mutation of the D2 domain; also called Pex6pWB; PEX6WB^E832Q; source: E. coli Tuner (DE3), co-purified with HisPex1pGST; not shown: His6, N-terminal, kept
Regarding B3, the binding result (in test [2]; with Pex1pTPA (S. cerevisiae)) was “binds” each time.

B4: Pex13p (endogenous, yeast membranes) (protein, UniProt P80667 1-386)
chain: MSSTAVPRPKPWETSASLEEPQRNAQSLSAMMTSNQQDSRPTEESNNSNSASESAPEVLPRPAALNSSGTYGESNTIPGIYGNSNYGIPYDNNPYSMNSIYGNSIGRYGYGGSYYGNNYGSFYGGGYGAGAGYGMNNGSGLGESTKATFQLIESLIGAVTGFAQMLESTYMATHNSFFTMISVAEQFGNLKEMLGSFFGIFAIMKFLKKILYRATKGRLGIPPKNFAESEGSKNKLIEDFQKFNDSGTINSNEKATRRKISWKPLLFFLMAVFGFPYLLNKFITKLQTSGTIRASQGNGSEPIDPSKLEFARALYDFVPENPEMEVALKKGDLMAILSKKDPLGRDSDWWKVRTKNGNIGYIPYNYIEIIKRRKKIEHVDDETRTH
As to B4, the binding entry with Pex1pTPA (S. cerevisiae) and with Pex6pTPA (S. cerevisiae) was “binds” in each case.
